Primary screen of a compound library

The chains behind the UniProt entries cited, without tags or fusion partners.
UniProt I6X8D2, whole entry: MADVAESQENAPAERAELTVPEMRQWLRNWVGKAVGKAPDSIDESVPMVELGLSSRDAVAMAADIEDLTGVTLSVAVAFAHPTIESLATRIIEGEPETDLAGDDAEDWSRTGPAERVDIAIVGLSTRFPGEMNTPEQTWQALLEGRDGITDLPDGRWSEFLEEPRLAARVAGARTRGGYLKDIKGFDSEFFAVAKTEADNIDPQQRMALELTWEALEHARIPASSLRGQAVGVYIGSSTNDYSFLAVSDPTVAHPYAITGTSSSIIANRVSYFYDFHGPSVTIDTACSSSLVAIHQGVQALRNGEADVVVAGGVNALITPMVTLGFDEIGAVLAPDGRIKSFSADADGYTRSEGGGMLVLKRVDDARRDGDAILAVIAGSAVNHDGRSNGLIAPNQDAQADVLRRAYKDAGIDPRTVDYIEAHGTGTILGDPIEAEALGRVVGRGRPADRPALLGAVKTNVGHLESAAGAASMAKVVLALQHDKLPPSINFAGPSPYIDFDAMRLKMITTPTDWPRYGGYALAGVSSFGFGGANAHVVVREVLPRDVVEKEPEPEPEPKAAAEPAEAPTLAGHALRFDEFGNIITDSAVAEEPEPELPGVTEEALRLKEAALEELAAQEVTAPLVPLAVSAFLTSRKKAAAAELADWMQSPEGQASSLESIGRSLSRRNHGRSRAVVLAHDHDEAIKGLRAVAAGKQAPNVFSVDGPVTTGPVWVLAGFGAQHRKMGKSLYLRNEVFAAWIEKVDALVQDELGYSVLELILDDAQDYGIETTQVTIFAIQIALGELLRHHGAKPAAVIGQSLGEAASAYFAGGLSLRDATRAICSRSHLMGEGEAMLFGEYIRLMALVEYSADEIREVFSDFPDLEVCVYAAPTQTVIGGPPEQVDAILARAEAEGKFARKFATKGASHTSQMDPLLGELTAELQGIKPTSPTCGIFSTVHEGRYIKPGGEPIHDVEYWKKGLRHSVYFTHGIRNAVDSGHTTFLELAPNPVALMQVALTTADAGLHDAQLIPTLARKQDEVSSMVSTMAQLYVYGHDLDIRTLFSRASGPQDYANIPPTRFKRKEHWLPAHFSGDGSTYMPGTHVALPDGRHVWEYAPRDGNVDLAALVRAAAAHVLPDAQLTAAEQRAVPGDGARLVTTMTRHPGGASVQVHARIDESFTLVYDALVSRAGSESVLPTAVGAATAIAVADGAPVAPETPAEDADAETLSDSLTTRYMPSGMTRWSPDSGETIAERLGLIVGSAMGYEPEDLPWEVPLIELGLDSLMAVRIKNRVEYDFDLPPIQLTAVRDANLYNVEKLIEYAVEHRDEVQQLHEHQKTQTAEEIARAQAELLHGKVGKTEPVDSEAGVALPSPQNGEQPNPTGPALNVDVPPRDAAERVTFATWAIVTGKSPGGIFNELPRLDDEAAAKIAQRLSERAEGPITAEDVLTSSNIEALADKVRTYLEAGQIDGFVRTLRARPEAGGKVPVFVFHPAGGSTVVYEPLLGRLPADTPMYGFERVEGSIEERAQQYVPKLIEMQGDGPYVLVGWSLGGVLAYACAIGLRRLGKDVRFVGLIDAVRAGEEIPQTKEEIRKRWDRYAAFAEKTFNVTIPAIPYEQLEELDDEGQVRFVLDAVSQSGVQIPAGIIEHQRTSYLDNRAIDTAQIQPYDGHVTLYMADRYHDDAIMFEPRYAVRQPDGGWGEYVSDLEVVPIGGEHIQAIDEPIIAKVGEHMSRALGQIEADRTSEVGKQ
UniProt P9WNZ1, whole entry: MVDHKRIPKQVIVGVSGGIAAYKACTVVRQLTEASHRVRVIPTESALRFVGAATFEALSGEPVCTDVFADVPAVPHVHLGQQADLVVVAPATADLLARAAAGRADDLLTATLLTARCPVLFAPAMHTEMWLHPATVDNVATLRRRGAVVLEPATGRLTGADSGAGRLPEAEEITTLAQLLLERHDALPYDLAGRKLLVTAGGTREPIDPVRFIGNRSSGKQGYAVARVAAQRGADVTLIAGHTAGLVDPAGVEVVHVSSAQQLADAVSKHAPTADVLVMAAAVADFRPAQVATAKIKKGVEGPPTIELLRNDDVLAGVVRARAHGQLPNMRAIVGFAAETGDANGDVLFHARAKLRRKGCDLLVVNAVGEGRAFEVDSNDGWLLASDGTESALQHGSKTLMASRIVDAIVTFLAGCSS
UniProt P9WPC5, whole entry: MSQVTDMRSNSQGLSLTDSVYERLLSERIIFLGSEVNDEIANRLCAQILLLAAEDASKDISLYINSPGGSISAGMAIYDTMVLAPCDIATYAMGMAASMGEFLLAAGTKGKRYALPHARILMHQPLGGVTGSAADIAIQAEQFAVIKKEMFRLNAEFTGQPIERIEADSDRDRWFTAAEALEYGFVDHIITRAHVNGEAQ
UniProt P9WPC3, whole entry partner: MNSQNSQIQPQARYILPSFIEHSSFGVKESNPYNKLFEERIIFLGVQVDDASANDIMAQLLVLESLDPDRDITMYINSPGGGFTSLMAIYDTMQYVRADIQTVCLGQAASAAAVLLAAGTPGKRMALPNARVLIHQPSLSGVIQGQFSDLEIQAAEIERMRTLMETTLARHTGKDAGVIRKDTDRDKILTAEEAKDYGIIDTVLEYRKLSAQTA
UniProt P9WFT3, whole entry: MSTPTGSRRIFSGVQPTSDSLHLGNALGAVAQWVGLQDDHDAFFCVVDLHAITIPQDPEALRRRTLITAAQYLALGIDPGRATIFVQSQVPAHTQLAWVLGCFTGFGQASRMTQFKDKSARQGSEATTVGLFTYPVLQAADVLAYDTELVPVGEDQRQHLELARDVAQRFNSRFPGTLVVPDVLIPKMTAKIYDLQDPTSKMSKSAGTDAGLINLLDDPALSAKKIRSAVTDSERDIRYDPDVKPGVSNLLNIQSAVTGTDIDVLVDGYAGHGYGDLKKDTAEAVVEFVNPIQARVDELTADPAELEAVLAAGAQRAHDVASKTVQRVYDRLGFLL

Data taken from ChEMBL document CHEMBL3988442, “University of Dundee, Small-Polar-MMV Screening Library” (2021).

Values are the deposited “Percent Effect”, in %. How 0% and 100% were set is not recorded. Most values in the screen are low, and negative values occur. The compounds are a random part of those screened.

Pks13 thioesterase: 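Enzyme assay of the thioesterase domain of polyketide synthase 13; the read-out is not stated. Target: Polyketide synthase Pks13, Mycobacterium tuberculosis (UniProt I6X8D2). Tested at 30 µM. Higher reads as stronger inhibition (inferred from which compounds were picked for retests). Size under these conditions: about 67,000 compounds, about 300 of them at 50% or above in at least one test.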
Toxoplasma: 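Assay of Toxoplasma gondii numbers, read through their beta-galactosidase reporter with a colour substrate. Tested at 10 µM. The record gives no direction; the compounds picked for IC50 retests had high values, so higher reads as fewer parasites. Of about 67,000 compounds tested this way, about 260 (0.38%) reached 50% or more in at least one test.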
CoaBC: 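Coenzyme A biosynthesis protein CoaBC, Mycobacterium tuberculosis (UniProt P9WNZ1). Enzyme assay of CoaBC with a phosphate dye (Biomol Green) read at 650 nm. Compounds at 30 µM. Direction is inferred from only a few compounds that gave an IC50; most scored high, so higher reads as stronger inhibition. Most strong results did not repeat in a second test. Of about 67,000 compounds tested this way, about 40 (0.06%) reached 50% or more in at least one test.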
ClpP1P2: 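Protease assay of ClpP1P2, read by the AMC dye that it sets free. Target: ClpP1P2, Mycobacterium tuberculosis (UniProt P9WPC5 and UniProt P9WPC3). Compounds at 50 µM. Higher reads as stronger inhibition, judged from the few compounds that gave an IC50. Most other retested compounds had strongly negative values. Size under these conditions: about 69,000 compounds, about 10 of them at 50% or above in at least one test.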
Leishmania in macrophages: 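Cell assay of Leishmania donovani living inside macrophages; the read-out is not stated. Concentration: 30 µM. The record gives no direction; compounds that gave an IC50 in retests scored well above the rest, so higher reads as stronger inhibition. Size under these conditions: about 69,000 compounds, about 1,000 of them at 50% or above in at least one test.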
MtTrpRS: 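Enzyme assay of tryptophanyl-tRNA synthetase; the read-out is not stated. Target: Tryptophan-tRNA ligase, Mycobacterium tuberculosis (UniProt P9WFT3). Tested at 10 µM. Direction is not recorded; retested compounds ran higher, which suggests that high means inhibition. Of about 65,000 compounds tested this way, about 64 (0.098%) reached 50% or more in at least one test.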

- Cn1cc(N2CC3(CCN(Cc4ccccc4)CC3)OCC2=O)cn1 | Pks13 thioesterase: 19.87%; CoaBC: 2.005%; ClpP1P2: 11.93%; MtTrpRS: -0.8299%
- Cc1nn(CC(=O)NCC2(C(N)=O)CCOCC2)c(C)c1Cl | Pks13 thioesterase: -1.662%; Toxoplasma: -11.12%; CoaBC: 3.56%; ClpP1P2: 1.307%; Leishmania in macrophages: 11.66%; MtTrpRS: 3.936%
- COC(=O)NCC(=O)NCC(C)(C)c1cccc(C(F)(F)F)c1 | Pks13 thioesterase: -4.116%; Toxoplasma: -3.105%; CoaBC: 6.426%; ClpP1P2: 2.249%; Leishmania in macrophages: 0.7678%; MtTrpRS: 0.6369%
- Cc1ccccc1NCc1nc2n(n1)CCCCC2 | Pks13 thioesterase: 4.002%; Toxoplasma: -5.025%; CoaBC: 1.139%; ClpP1P2: 7.52%; Leishmania in macrophages: -2.813%; MtTrpRS: 1.763%
- CC1=N[C@@]2(CC[C@@H]3CN(C(=O)Nc4ccc(F)cc4)C[C@@H]32)C(=O)N1C | Pks13 thioesterase: 9.823%; CoaBC: 0.6402%; ClpP1P2: -5.083%; MtTrpRS: 8.483%
- COc1cccc2c1OCC(CNC(=O)CSc1ccccn1)C2 (stereo unspecified) | Pks13 thioesterase: -24.26%; Toxoplasma: 19.99%; CoaBC: 12.62%; ClpP1P2: -1.392%; Leishmania in macrophages: 17.1%; MtTrpRS: -3.314%
- CCC(C)C(=O)Nc1ccc2oc(=O)n(CCN(C)C)c2c1 (stereo unspecified) | Pks13 thioesterase: 2.397%; Toxoplasma: 8.256%; CoaBC: -2.479%; ClpP1P2: 1.645%; Leishmania in macrophages: 3.666%; MtTrpRS: -0.5069%
- CNC(=O)[C@H]1C[C@@H]2CN(C(=O)c3cncc(C)c3)C[C@@H]2N1C | Pks13 thioesterase: 19.59%; CoaBC: 3.941%; ClpP1P2: -1.719%; MtTrpRS: -3.843%
- COc1cccc(-n2c(SCC(=O)O)nnc2-c2cn[nH]c2)c1 | Pks13 thioesterase: -18.7%; Toxoplasma: -6.062%; CoaBC: -1.411%; ClpP1P2: -0.7138%; Leishmania in macrophages: -10.94%; MtTrpRS: 2.018%
- COc1ccc(-c2c(C)nn3c(=N)c(C#N)n[nH]c23)cc1OC | Pks13 thioesterase: 3.577%; CoaBC: -2.552%; ClpP1P2: -13.36%; Leishmania in macrophages: -20.59%; MtTrpRS: -2.412%
- Cc1nc(CN2CCCC(NCc3ccsc3)C2)no1 (stereo unspecified) | Pks13 thioesterase: -7.552%; Toxoplasma: 0.1059%; CoaBC: 0.7229%; ClpP1P2: 11.68%; Leishmania in macrophages: -19.94%; MtTrpRS: -5.995%
- CCN(Cc1cccc(Cl)c1)Cc1nc2c(cnn2C)c(=O)[nH]1 | Pks13 thioesterase: -0.7181%; Toxoplasma: 15.06%; CoaBC: 4.359%; ClpP1P2: 12.59%; Leishmania in macrophages: 9.051%; MtTrpRS: 1.329%
- CC(C)CN1C[C@H](COCc2ccccc2)Oc2ncccc2C1=O | Pks13 thioesterase: 17.61%; Toxoplasma: 12.02%; CoaBC: 1.211%; ClpP1P2: 14.54%; Leishmania in macrophages: -5.337%
- CC1CCN(C(=O)c2ccn(COc3ccccc3)n2)CC1 | Pks13 thioesterase: -15.48%; Toxoplasma: -4.916%; CoaBC: -3.695%; ClpP1P2: -0.5716%; Leishmania in macrophages: -49.8%; MtTrpRS: 4.145%

2 of the entries, repeated:

{"structure": "Cc1nc(CN2CCCC(NCc3ccsc3)C2)no1", "stereo": "stereo unspecified", "Pks13 thioesterase": -7.552, "Toxoplasma": 0.1059, "CoaBC": 0.7229, "ClpP1P2": 11.68, "Leishmania in macrophages": -19.94, "MtTrpRS": -5.995}
{"structure": "COC(=O)NCC(=O)NCC(C)(C)c1cccc(C(F)(F)F)c1", "Pks13 thioesterase": -4.116, "Toxoplasma": -3.105, "CoaBC": 6.426, "ClpP1P2": 2.249, "Leishmania in macrophages": 0.7678, "MtTrpRS": 0.6369}